Laboratory results as given in publication PMC3091301.

Chains of the proteins cited; added tags and fusions are not shown. Chains listed by the source or under a name are the forms on record and can include a tag or linker.
eZNF9-TAP (Homo sapiens), one chain, as listed by the source: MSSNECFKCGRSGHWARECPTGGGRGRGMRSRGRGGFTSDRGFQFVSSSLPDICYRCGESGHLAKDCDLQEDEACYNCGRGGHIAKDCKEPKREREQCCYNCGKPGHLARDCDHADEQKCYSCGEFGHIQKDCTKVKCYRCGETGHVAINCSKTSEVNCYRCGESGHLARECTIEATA

Experiments:
eZNF9-TAP (Homo sapiens) [1] = experiment: pull-down; settings: Biotin-RNA pull-down on streptavidin beads with immunoblot read-out, protein in a lysate after overexpression, residues 1-178, protein details: TAP (pBG1805)
[2] = target: T1, eGis2-TAP (Saccharomyces cerevisiae (BY4741 background)) (UniProt P53849); experiment: pull-down; settings: Biotin-RNA pull-down on streptavidin beads with immunoblot read-out, protein in an extract, residues 1-153, protein details: C-terminal TAP
T1 sequence (looked up): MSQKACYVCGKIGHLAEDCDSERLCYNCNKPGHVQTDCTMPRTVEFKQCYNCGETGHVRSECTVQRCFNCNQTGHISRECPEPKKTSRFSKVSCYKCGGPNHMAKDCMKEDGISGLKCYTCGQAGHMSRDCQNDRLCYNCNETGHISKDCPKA

[3] = target: T1, eGis2-TAP (Saccharomyces cerevisiae (BY4741 background)); experiment: competition with a labelled probe; settings: protein in an extract, residues 1-153, protein details: C-terminal TAP
pZNF9-His (Homo sapiens) = experiment: pull-down; settings: Biotin-RNA pull-down on streptavidin beads with immunoblot read-out, recombinant protein, residues 1-178, protein details: His6 (pDEST-17)
[4] = target: T2, pGis2-His (Saccharomyces cerevisiae) (UniProt P53849); experiment: pull-down; settings: Biotin-RNA pull-down on streptavidin beads with immunoblot read-out, recombinant protein, residues 1-153, protein details: His6 (pDEST-17)
T2 sequence (looked up): T1 sequence (looked up)

eZNF9-TAP (Homo sapiens) [5] = experiment: competition with a labelled probe; settings: 10-fold excess vs biotin MYH4 RNA, ZNF9 preparation not specified; protein in a lysate after overexpression; residues 1-178; protein details: TAP (pBG1805); label: biotin (unlabeled as competitor)
[6] = 10-fold excess vs biotin (GAUGAA)5 RNA, moderate, label: none (competitor), single-stranded DNA
[7] = label: biotin (unlabeled as competitor)
[8] = almost abrogated, label: biotin (unlabeled as competitor)
[9] = 10-fold excess vs biotin (GAUGAA)5, weak to moderate, label: biotin (unlabeled as competitor)

GACGACGACGACGACGACGACGACGACGAC [(GACGAC)5]
binding result (eZNF9-TAP (Homo sapiens) [1]; ZNF9 preparation not specified, label: biotin): binds more weakly | binding result ([2]; Gis2 preparation not specified, label: biotin): binds more weakly

GATGAAGATGAAGATGAAGATGAAGATGAA [(GATGAA)5 DNA]
binding result [3, 6]: binds more weakly

GATGTTGATGTTGATGTTGATGTTGATGTT [(GATGTT)5 DNA]
binding result [3, 6]: binds more weakly

GAUGAAGAUGAAGAUGAAGAUGAAGAUGAA [(GAUGAA)5]
binding result (eZNF9-TAP (Homo sapiens) [1]; [7]): binds | binding result (pZNF9-His (Homo sapiens); [7]): binds | binding result [4, 7]: binds | binding result [2, 7]: binds | binding result (eZNF9-TAP (Homo sapiens) [5]): binds | binding result ([3]; 10-fold excess vs biotin (GAUGAA)5, strong, Gis2 preparation not specified, label: biotin (unlabeled as competitor)): binds

GAUGCUGAUGCUGAUGCUGAUGCUGAUGCU [(GAUGCU)5]
binding result (eZNF9-TAP (Homo sapiens) [1]; [8]): binds more weakly | binding result (pZNF9-His (Homo sapiens); [8]): binds more weakly | binding result [4, 8]: binds more weakly | binding result [2, 8]: binds more weakly | binding result [3, 9]: binds more weakly

GAUGUUGAUGUUGAUGUUGAUGUUGAUGUU [(GAUGUU)5]
binding result (eZNF9-TAP (Homo sapiens) [1]; label: biotin): binds | binding result (pZNF9-His (Homo sapiens); label: biotin): binds | binding result ([4]; label: biotin): binds | binding result ([2]; label: biotin): binds

GAUUAAGAUUAAGAUUAAGAUUAAGAUUAA [(GAUUAA)5]
binding result (eZNF9-TAP (Homo sapiens) [1]; label: biotin): no binding | binding result (pZNF9-His (Homo sapiens); label: biotin): no binding | binding result ([4]; label: biotin): no binding | binding result ([2]; label: biotin): no binding

GTGGTGGTGGTGGTGGTGGTGGTGGTGGTG [(GTGGTG)5 DNA]
binding result ([2]; data not shown, Gis2 preparation not specified, label: none (competitor) or biotin (direct pull-down), single-stranded DNA): binds | binding result ([3]; 10-fold excess vs biotin (GAUGAA)5 RNA, strong, label: none (competitor) or biotin (direct pull-down), single-stranded DNA): binds

GTTGTTGTTGTTGTTGTTGTTGTTGTTGTT [(GTTGTT)5 DNA]
binding result [3, 6]: binds more weakly

GUGGUGGUGGUGGUGGUGGUGGUGGUGGUG [(GUGGUG)5]
binding result (eZNF9-TAP (Homo sapiens) [1]; [8]): binds more weakly | binding result (pZNF9-His (Homo sapiens); [8]): binds more weakly | binding result [4, 8]: binds more weakly | binding result [2, 8]: binds more weakly | binding result [3, 9]: binds more weakly

GUUGUUGUUGUUGUUGUUGUUGUUGUUGUU [(GUUGUU)5]
binding result (eZNF9-TAP (Homo sapiens) [1]; label: biotin): binds | binding result (pZNF9-His (Homo sapiens); label: biotin): binds | binding result ([4]; label: biotin): binds | binding result ([2]; label: biotin): binds

For some assays here: No signal at the amounts used counts as a negative. At least one verdict was read from the data and is not stated in words by the source. For some assays here: Protein sequences can lack the tags named with them. For some assays here: Where cells or extracts were used, other partners may take part. For at least one entry, the source does not settle the construct or the ends of the probe. For some assays here: The comparison behind a weaker result is the experiment's own reference, which may not be listed here.
